Experimental data from article PMC9440223.
No constants are given. Whether binding was seen depends on the method and setting. Binding seen in cells or lysates may run through a third protein. A result given as binding can be weak or reduced; the word gives no strength. Tags and fused reporters may be left off the sequences shown. One block for each molecule: values may come before it.

Legend:
[1] = target: T1, Flag-tagged KCTD9 FL (human) (UniProt Q7L273); experiment: co-IP; SW620 cells co-transfected with Flag-tagged KCTD9 and HA-tagged ZNT9 constructs (full length and fragments), immunoprecipitation and Western blot
T1 sequence: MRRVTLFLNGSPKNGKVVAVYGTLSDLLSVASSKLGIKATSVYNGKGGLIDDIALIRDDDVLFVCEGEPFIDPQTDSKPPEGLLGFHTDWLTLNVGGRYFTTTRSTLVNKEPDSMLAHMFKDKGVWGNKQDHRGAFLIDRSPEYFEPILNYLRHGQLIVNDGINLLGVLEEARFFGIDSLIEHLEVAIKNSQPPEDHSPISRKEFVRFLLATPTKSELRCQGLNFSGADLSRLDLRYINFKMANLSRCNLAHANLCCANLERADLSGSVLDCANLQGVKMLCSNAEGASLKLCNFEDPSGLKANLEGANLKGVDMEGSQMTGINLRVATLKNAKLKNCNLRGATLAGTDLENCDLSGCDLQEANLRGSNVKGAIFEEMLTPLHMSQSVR

[2] = target: Flag-tagged KCTD9 C-terminal region (human); experiment: as above

binding [1]: binds
Molecule: HA-tagged ZNT9 N-terminal region (amino acids 1-200) (from UniProt Q6PML9) (domain or fragment)

binding [2]: binds
B1: HA-tagged ZNT9 FL (protein, UniProt Q6PML9 68-568)
chain: STNVQKEGQGSQTLRVEKVPSFETAEGIGTELKAPLKQEPLQVRVKAVLKKREYGSKYTQNNFITGVRAINEFCLKSSDLEQLRKIRRRSPHEDTESFTVYLRSDVEAKSLEVWGSPEALAREKKLRKEAEIEYRERLFRNQKILREYRDFLGNTKPRSRTASVFFKGPGKVVMVAICINGLNCFFKFLAWIYTGSASMFSEAIHSLSDTCNQGLLALGISKSVQTPDPSHPYGFSNMRYISSLISGVGIFMMGAGLSWYHGVMGLLHPQPIESLLWAYCILAGSLVSEGATLLVAVNELRRNARAKGMSFYKYVMESRDPSTNVILLEDTAAVLGVIIAATCMGLTSITGNPLYDSLGSLGVGTLLGMVSAFLIYTNTEALLGRSIQPEQVQRLTELLENDPSVRAIHDVKATDLGLGKVRFKAEVDFDGRVVTRSYLEKQDFDQMLQEIQEVKTPEELETFMLKHGENIIDTLGAEVDRLEKELKKRNPEVRHVDLEIL
